SMILES strings stand for the structures. The list shows a part of the results.

The chains behind the UniProt entries cited, without tags or fusion partners. Where a name states a change or a piece, a line headed by the entry shows the natural chain unless it says otherwise.
UniProt Q6DD87: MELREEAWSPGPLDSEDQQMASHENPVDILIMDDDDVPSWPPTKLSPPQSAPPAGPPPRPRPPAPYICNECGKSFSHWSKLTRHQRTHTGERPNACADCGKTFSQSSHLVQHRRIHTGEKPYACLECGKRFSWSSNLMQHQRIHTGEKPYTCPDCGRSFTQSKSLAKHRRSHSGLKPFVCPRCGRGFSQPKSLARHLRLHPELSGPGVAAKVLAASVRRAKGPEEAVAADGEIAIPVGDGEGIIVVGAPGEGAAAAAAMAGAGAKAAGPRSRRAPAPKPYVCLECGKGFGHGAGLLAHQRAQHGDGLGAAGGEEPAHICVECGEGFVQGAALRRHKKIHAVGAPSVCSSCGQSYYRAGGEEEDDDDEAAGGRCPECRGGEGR
UniProt Q2TB10: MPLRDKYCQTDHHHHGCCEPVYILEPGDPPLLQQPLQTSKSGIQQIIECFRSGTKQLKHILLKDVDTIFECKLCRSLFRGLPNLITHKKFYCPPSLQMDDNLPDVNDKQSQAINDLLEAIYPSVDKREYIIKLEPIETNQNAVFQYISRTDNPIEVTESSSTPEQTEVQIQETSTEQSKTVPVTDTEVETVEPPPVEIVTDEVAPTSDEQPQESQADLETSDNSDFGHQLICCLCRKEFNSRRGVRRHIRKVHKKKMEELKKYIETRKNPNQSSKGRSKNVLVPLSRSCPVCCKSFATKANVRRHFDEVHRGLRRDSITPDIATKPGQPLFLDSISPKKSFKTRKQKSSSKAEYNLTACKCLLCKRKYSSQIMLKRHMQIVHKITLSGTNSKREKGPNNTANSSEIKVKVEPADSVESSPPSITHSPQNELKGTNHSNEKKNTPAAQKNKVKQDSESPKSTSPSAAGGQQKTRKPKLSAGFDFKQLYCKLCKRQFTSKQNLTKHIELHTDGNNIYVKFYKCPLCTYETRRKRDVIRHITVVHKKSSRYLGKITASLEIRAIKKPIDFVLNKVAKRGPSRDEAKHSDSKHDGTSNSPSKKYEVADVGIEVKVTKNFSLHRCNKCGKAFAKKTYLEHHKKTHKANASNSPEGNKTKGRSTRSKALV
UniProt Q96NB3: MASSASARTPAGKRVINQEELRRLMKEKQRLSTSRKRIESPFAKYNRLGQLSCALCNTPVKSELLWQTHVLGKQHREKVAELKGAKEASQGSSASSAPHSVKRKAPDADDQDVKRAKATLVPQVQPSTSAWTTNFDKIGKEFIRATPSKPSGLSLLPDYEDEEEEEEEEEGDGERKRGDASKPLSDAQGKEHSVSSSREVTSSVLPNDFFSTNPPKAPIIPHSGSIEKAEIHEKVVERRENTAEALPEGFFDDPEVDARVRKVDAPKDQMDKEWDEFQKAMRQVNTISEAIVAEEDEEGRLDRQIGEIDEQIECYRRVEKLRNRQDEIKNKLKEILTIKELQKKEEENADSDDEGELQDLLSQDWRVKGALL

The target in the first test is ZNF787 (UniProt Q6DD87). Kind of test: log2 fold change, soluble protein after heating vs DMSO (PISA); higher = thermal stabilisation; K562 cells, 10 uM, 30 min; active = over 0.2 and 3.5 SD of the protein, either way, in both replicates (recomputed). The procedure, abridged:
(§1)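 K562 cells at 2×10^6 cells/mL were given 10 μM compound for 30 min. Aliquots then went through 3 min of heating across 48°C-58°C, were pooled, and were extracted in PBS with 0.5% NP-40 at 4°C, and the supernatant after 21,000xg for 90 min was quantified by TMTpro 16plex LC-MS/MS with channel sums equalised. Thermal stability relative to control samples, from duplicates, is given as log2 fold change.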
As to `Cc1ncc(-c2ccnc(Nc3ccc(S(C)(=O)=O)cc3)n2)n1C(C)C`, the log2 fold change is inactive: -0.018. On the same count and under the same terms, for `CO[C@H]1C[C@@H]2CC[C@@H](C)[C@@](O)(O2)C(=O)C(=O)N2CCCC[C@H]2C(=O)O[C@H]([C@H](C)C[C@@H]2CC[C@H](n3cnnn3)[C@H](OC)C2)CC(=O)[C@H](C)/C=C(\C)[C@@H](O)[C@@H](OC)C(=O)[C@H](C)C[C@H](C)/C=C/C=C/C=C/1C` [zotarolimus] the value was inactive: 0.019; for `Cn1c2cc(S(C)=O)sc2c2cnn(Cc3cccc(N)c3)c(=O)c21` (configuration not stated), inactive: 0.255; for `COc1cc2ncnc(Nc3ccc(F)c(Cl)c3)c2cc1OCCCN1CCOCC1` [gefitinib], inactive: -0.088. As to `CC(C)c1cnn2c(NCc3ccccc3)cc(NCCCCCCN)nc12`, the log2 fold change is inactive: 0.06. The same measure, in the same setting: for `NC(=O)c1ccc2nc(-c3ccc(Oc4ccc(Cl)cc4)cc3)[nH]c2c1` the value was inactive: 0.

In another test the target is ZNF800 (UniProt Q2TB10). Described as above. In short, it runs like this:
as §1
With `CN1CC[C@H](c2c(O)cc(O)c3c(=O)cc(-c4ccccc4Cl)oc23)[C@H](O)C1` [alvocidib], the log2 fold change was inactive: -0.114.

For the compound `Cc1cc(SCc2sc(-c3ccc(C(F)(F)F)cc3)nc2C)ccc1OCC(=O)O`, the log2 fold change is inactive: -0.095.

Consider `CC[C@H](C)n1cc(C)c2c(C(=O)NCc3c(C)cc(C)[nH]c3=O)cc(-c3ccc(N4CCNCC4)nc3)cc21`, for which the log2 fold change is inactive: 0.016. On to `Cn1cc(-c2ccc3c(c2)CCN3C(=O)Cc2cccc(C(F)(F)F)c2)c2c(N)ncnc21`, for which the log2 fold change was inactive: -0.201. Still for that read-out and setting: for `Cc1cc(Nc2cc(N3CCN(C)CC3)nc(Sc3ccc(NC(=O)C4CC4)cc3)n2)n[nH]1` [tozasertib] the value was inactive: -0.04; for `O=C(Nc1cccc(Nc2ncc(Br)c(NCCc3cnc[nH]3)n2)c1)N1CCCC1`, inactive: 0.031; for `C[C@H](Nc1ncnc2nc[nH]c12)c1cc2cccc(Cl)c2c(=O)n1-c1ccccc1` [duvelisib], inactive: 0.041. Same read-out and setting: for `C[C@@H](N)c1ccc(C(=O)Nc2ccnc3[nH]ccc23)cc1` the value was inactive: 0.226; for `NC1(Cc2ccc(Cl)cc2)CCN(c2ncnc3[nH]ccc23)CC1`, inactive: -0.19.

As for `CN1CCc2c(c3ccccc3n2Cc2ccc(C(=O)NO)cc2)C1` [Tubastatin A], the log2 fold change was inactive: 0.199. The same measure, in the same setting: for `CC1=C(C(=O)Nc2cc3cn[nH]c3cc2F)C(c2ccc(C(F)(F)F)cc2)CC(=O)N1` (configuration not stated) the value was inactive: 0.075.

For `Cc1nc(Nc2n[nH]c3c2CN(C(=O)N[C@H](CN(C)C)c2ccccc2)C3(C)C)c2sccc2n1`, the log2 fold change is inactive: -0.425.

On to `Cc1nc(Nc2ncc(C(=O)Nc3c(C)cccc3Cl)s2)cc(N2CCN(CCO)CC2)n1` [dasatinib], for which the log2 fold change is inactive: 0.065. On the same count and under the same terms, with `Cc1ccc2c(=O)c3ccccc3n(CCCN)c2c1C` the figure was inactive: -0.651. On to `CN1CCN(CCOc2cc(OC3CCOCC3)c3c(Nc4c(Cl)ccc5c4OCO5)ncnc3c2)CC1` [saracatinib], for which the log2 fold change was inactive: -0.229.

On to `Cc1cn(-c2cc(NC(=O)c3ccc(C)c(Nc4nccc(-c5cccnc5)n4)c3)cc(C(F)(F)F)c2)cn1` [nilotinib], for which the log2 fold change is inactive: 0.02.

Take `CNc1nc(-c2ccc3c(N)n[nH]c3c2)cc(N2C[C@@H](C(=O)NC3CCCCC3)CC[C@H]2C)n1`: the log2 fold change is inactive: 0.091. For `Cc1ncc(-c2ccnc(Nc3ccc(S(C)(=O)=O)cc3)n2)n1C(C)C`, the log2 fold change is inactive: -0.155. Still for that read-out and setting: with `CO[C@H]1C[C@@H]2CC[C@@H](C)[C@@](O)(O2)C(=O)C(=O)N2CCCC[C@H]2C(=O)O[C@H]([C@H](C)C[C@@H]2CC[C@H](n3cnnn3)[C@H](OC)C2)CC(=O)[C@H](C)/C=C(\C)[C@@H](O)[C@@H](OC)C(=O)[C@H](C)C[C@H](C)/C=C/C=C/C=C/1C` [zotarolimus] the figure was inactive: 0.175; with `Cn1c2cc(S(C)=O)sc2c2cnn(Cc3cccc(N)c3)c(=O)c21` (configuration not stated), inactive: 0.323; with `COc1cc2ncnc(Nc3ccc(F)c(Cl)c3)c2cc1OCCCN1CCOCC1` [gefitinib], inactive: 0.177.

The target of the next test is ZNF830 (UniProt Q96NB3). Described as above. The procedure, abridged:
as §1
On to `CN1CC[C@H](c2c(O)cc(O)c3c(=O)cc(-c4ccccc4Cl)oc23)[C@H](O)C1` [alvocidib], for which the log2 fold change was inactive: -0.019. On the same count and under the same terms, with `Cc1cc(SCc2sc(-c3ccc(C(F)(F)F)cc3)nc2C)ccc1OCC(=O)O` the figure was inactive: -0.058; with `O=C1NC(=O)C(c2cnc3ccccn23)=C1c1cn2c3c(cc(F)cc13)CN(C(=O)N1CCCCC1)CC2`, inactive: -0.013. On the same count and under the same terms, for `CC[C@H](C)n1cc(C)c2c(C(=O)NCc3c(C)cc(C)[nH]c3=O)cc(-c3ccc(N4CCNCC4)nc3)cc21` the value was inactive: -0.02; for `Cn1cc(-c2ccc3c(c2)CCN3C(=O)Cc2cccc(C(F)(F)F)c2)c2c(N)ncnc21`, inactive: 0.003.

On to `Cc1cc(Nc2cc(N3CCN(C)CC3)nc(Sc3ccc(NC(=O)C4CC4)cc3)n2)n[nH]1` [tozasertib], for which the log2 fold change is inactive: -0.018. Same read-out and setting: for `CC(C)(O)CC(=O)NCCn1ccc2ncnc(Nc3ccc(Oc4cccc(C(F)(F)F)c4)c(Cl)c3)c21` the value was inactive: -0.003. The same measure, in the same setting: for `O=C(Nc1cccc(Nc2ncc(Br)c(NCCc3cnc[nH]3)n2)c1)N1CCCC1` the value was inactive: -0.004.

Consider `C[C@H](Nc1ncnc2nc[nH]c12)c1cc2cccc(Cl)c2c(=O)n1-c1ccccc1` [duvelisib], for which the log2 fold change is inactive: 0.021. Same read-out and setting: for `C[C@@H](N)c1ccc(C(=O)Nc2ccnc3[nH]ccc23)cc1` the value was inactive: -0.048.

In the case of `NC1(Cc2ccc(Cl)cc2)CCN(c2ncnc3[nH]ccc23)CC1`, the log2 fold change was inactive: 0.054. In the case of `CC[C@H](C)[C@H](NC(=O)[C@H]([C@@H](C)CC)N(C)C(C)=O)C(=O)N[C@H](C(=O)N[C@@H](CC(C)C)C(=O)[C@@]1(C)CO1)[C@@H](C)O` [epoxomicin], the log2 fold change was inactive: 0.091. On to `Fc1ccc(Cl)cc1-c1nc(Nc2ccncc2)c2nccnc2n1`, for which the log2 fold change was inactive: -0.002. Consider `CN1CCc2c(c3ccccc3n2Cc2ccc(C(=O)NO)cc2)C1` [Tubastatin A], for which the log2 fold change was inactive: 0.035. On the same count and under the same terms, with `CC1=C(C(=O)Nc2cc3cn[nH]c3cc2F)C(c2ccc(C(F)(F)F)cc2)CC(=O)N1` (configuration not stated) the figure was inactive: 0.001. On the same count and under the same terms, for `Cc1nc(Nc2n[nH]c3c2CN(C(=O)N[C@H](CN(C)C)c2ccccc2)C3(C)C)c2sccc2n1` the value was inactive: 0.029.

In the case of `CNC(=O)c1ccccc1Nc1nc(Nc2ccc(N3CCOCC3)cc2OC)ncc1Cl`, the log2 fold change is inactive: -0.069. Still for that read-out and setting: with `CCCCN(Cc1ccc(C(=O)NO)cc1)C(=O)Nc1ccccc1` [Nexturastat A] the figure was inactive: -0.045; with `Cc1nc(Nc2ncc(C(=O)Nc3c(C)cccc3Cl)s2)cc(N2CCN(CCO)CC2)n1` [dasatinib], inactive: 0.006.

For the compound `Cc1ccc2c(=O)c3ccccc3n(CCCN)c2c1C`, the log2 fold change is inactive: -0.004. Same read-out and setting: for `CN1CCN(CCOc2cc(OC3CCOCC3)c3c(Nc4c(Cl)ccc5c4OCO5)ncnc3c2)CC1` [saracatinib] the value was inactive: 0.057. Same read-out and setting: with `C[C@@H]1COCCN1c1cc(C2(S(C)(=O)=O)CC2)nc(-c2cccc3[nH]ccc23)n1` the figure was inactive: 0.027. Same read-out and setting: for `Cc1cn(-c2cc(NC(=O)c3ccc(C)c(Nc4nccc(-c5cccnc5)n4)c3)cc(C(F)(F)F)c2)cn1` [nilotinib] the value was inactive: 0.042. Consider `CNc1nc(-c2ccc3c(N)n[nH]c3c2)cc(N2C[C@@H](C(=O)NC3CCCCC3)CC[C@H]2C)n1`, for which the log2 fold change is inactive: -0.094. Still for that read-out and setting: for `Cc1ncc(-c2ccnc(Nc3ccc(S(C)(=O)=O)cc3)n2)n1C(C)C` the value was inactive: -0.011; for `CO[C@H]1C[C@@H]2CC[C@@H](C)[C@@](O)(O2)C(=O)C(=O)N2CCCC[C@H]2C(=O)O[C@H]([C@H](C)C[C@@H]2CC[C@H](n3cnnn3)[C@H](OC)C2)CC(=O)[C@H](C)/C=C(\C)[C@@H](O)[C@@H](OC)C(=O)[C@H](C)C[C@H](C)/C=C/C=C/C=C/1C` [zotarolimus], inactive: -0.061; for `Cn1c2cc(S(C)=O)sc2c2cnn(Cc3cccc(N)c3)c(=O)c21` (configuration not stated), inactive: -0.047.

As to `COc1cc2ncnc(Nc3ccc(F)c(Cl)c3)c2cc1OCCCN1CCOCC1` [gefitinib], the log2 fold change was inactive: 0.002.

Take `CC(C)c1cnn2c(NCc3ccccc3)cc(NCCCCCCN)nc12`: the log2 fold change was inactive: 0.06. Same read-out and setting: with `NC(=O)c1ccc2nc(-c3ccc(Oc4ccc(Cl)cc4)cc3)[nH]c2c1` the figure was inactive: 0.008.

The values above are taken from the supplement of paper PMC10849652.
